Test results published in article PMC11801372.

By UniProt entry, the sequences of proteins in these tests, tags left out.
UniProt Q9DBD5: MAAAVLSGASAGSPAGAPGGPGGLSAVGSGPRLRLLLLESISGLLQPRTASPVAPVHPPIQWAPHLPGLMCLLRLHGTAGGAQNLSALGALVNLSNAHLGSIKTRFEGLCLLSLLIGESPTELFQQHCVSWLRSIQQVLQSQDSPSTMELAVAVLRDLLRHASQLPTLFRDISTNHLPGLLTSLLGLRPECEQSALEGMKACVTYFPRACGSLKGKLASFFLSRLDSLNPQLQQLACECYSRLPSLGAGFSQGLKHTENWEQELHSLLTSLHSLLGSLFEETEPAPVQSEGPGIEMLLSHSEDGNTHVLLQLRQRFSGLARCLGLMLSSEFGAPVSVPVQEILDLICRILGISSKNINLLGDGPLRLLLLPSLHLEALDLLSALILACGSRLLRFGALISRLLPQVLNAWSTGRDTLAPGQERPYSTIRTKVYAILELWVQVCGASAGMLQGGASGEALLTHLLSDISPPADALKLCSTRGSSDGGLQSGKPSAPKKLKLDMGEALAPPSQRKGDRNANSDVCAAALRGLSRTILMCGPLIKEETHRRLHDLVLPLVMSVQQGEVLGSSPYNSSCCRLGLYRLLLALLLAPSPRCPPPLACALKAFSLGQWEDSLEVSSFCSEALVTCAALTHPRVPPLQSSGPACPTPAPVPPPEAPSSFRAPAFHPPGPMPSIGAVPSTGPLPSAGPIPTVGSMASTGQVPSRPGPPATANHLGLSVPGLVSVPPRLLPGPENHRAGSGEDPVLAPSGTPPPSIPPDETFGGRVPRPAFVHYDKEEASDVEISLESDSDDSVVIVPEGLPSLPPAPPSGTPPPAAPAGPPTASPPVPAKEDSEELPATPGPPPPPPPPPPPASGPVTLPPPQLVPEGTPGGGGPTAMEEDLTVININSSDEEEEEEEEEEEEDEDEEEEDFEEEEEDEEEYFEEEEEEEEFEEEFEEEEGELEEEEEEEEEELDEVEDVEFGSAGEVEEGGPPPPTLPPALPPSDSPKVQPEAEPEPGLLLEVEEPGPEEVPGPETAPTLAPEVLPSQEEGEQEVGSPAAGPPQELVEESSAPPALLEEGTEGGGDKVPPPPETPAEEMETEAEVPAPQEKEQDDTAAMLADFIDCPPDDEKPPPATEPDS
UniProt Q9EP97: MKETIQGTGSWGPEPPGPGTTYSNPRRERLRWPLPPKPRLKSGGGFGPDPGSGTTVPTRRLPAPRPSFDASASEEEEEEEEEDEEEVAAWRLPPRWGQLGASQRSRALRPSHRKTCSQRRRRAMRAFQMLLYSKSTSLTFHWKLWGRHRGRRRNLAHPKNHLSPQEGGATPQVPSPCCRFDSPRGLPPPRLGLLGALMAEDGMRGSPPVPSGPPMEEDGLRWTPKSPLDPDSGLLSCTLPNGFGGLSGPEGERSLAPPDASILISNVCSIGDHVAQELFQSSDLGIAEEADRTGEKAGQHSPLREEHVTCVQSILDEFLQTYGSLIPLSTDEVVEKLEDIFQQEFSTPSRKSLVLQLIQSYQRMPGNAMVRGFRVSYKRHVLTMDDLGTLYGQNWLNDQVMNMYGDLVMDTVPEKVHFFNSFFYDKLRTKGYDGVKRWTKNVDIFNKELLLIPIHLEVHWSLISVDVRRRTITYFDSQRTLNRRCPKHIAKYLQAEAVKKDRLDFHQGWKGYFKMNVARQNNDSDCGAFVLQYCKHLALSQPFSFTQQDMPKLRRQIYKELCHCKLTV

Target: T1, SPIC-green fluorescent protein (GFP) fusion protein (mouse) (UniProt Q6P3D7)
T1 sequence: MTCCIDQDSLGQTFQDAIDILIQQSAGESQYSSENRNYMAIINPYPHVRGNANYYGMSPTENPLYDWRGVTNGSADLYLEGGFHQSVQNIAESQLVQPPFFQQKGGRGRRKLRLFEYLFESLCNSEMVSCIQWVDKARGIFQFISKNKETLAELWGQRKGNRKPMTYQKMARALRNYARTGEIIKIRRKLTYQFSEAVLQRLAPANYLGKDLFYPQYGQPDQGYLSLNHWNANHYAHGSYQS
Assay: affinity purification with mass spectrometry; GFP-Trap agarose beads on nuclear extract of SPIC-GFP BAC ESCs in 2iLd3; 300 mM NaCl, EtBr 0.05 mg/ml to release DNA-mediated interactions, 90 min at 4°C; label-free LC-MS/MS, three biological replicates; WT ESCs as negative control

Question: Which binding does the source give for “PELP1 (Proline, glutamate and leucine rich protein 1) (from UniProt Q9DBD5 1-1123)” here?
Answer: The binding was “binds”.

Question: With “SENP3 (SUMO specific peptidase 3) (from UniProt Q9EP97 1-568)” as the molecule, how does the binding read?
Answer: Its binding is “binds”.

B1: NANOG (protein, UniProt Q80Z64 1-305)
chain: MSVGLPGPHSLPSSEEASNSGNASSMPAVFHPENYSCLQGSATEMLCTEAASPRPSSEDLPLQGSPDSSTSPKQKLSSPEADKGPEEEENKVLARKQKMRTVFSQAQLCALKDRFQKQKYLSLQQMQELSSILNLSYKQVKTWFQNQRMKCKRWQKNQWLKTSNGLIQKGSAPVEYPSIHCSYPQGYLVNASGSLSMWGSQTWTNPTWSSQTWTNPTWNNQTWTNPTWSSQAWTAQSWNGQPWNAAPLHNFGEDFLQPYVQLQQNFSASDLEVNLEATRESHAHFSTPQALELFLNYSVTPPGEI
Question: How did the binding turn out when B1 was run?
Answer: The binding was “binds”.

B2: ZFP609 (Zinc finger protein 609) (protein, UniProt Q8BZ47 1-1413)
chain: MSLSSGACGGKGVDANPVETYDSGDEWDIGVGNLIIDLDADLEKDQQKLEMSGSKEVGIPAPNAVATLPDNIKFVTPVPGPQGKEGKSKSKRSKSGKDASKPTPGTSLFSPSEGAASKKEVQGRAGDGASAGGLVAAVAPKGSEKAAKASRSVAGSKKEKENSSSKGKKERSEGVGTCSEKDPGVLQPVPLGGRGSQYDGSAGMDTGTVEPLGSIAIEPGAALNPLGTKPEPEEGENECRPLKKVKSEKMESPVSTPAVLPLHLLVPVVNNDISSPCEQIMVRTRSVGVNTCDVALATEPECLGPCEPGTSVNLEGIVWQETEDGMLVVNVTWRNKTYVGTLLDCTRHDWAPPRFCDSPTSDLEMRNGRGRGKRMRPSSNTPVSEAAAASDSKGTSSSSKTRAGANSKGRRGSQNSSEHRPPASSTSEDVKASPSSANKRKSKPLSDMELNSSSEDSKGSKRVRTNSMGSATGPLPGTKVEPTLVDRNCPSPVLIDCPHPNCNKKYKHINGLKYHQAHAHTDDDSKPEADGDSEYGEEPALHADLSCNGAPVPQKGSLSPARSATPKVRLVEPHSPSPSSKFSTKGLCKKKLSGEGDTDPGALSNDGSDDGPSVMDETSNDAFDSLERKCMEKEKCKKPSSLKSEKIPSKSLKSARPIAPAIPPQQIYTFQTATFTAASPGSSSGLTTTVVQAMPNSPQLKPIQPKPTVMGEPFTVNPALTPAKDKKKKDKKKKDSSKELESPLTPGKVCRAEEGKSPFRDAAGDGIKVESLLNGSSESHQSRLASIKAEADKIYSFTDNAPSPSIGGSSRLDSTTPTQPLTPLHVVTQNGAEASSVKTNSPAYSDISDAGEDGEGKVDSAKSKDPEQLVKEGAKKTLFPPQPQSKDSPYYQGFESYYSPGYAQSSPGTLTSSSQAGMEGQPLKTKKDEEPESVEGKVKNDVCEEKKPELSNSSQQPSVIQQRPNMYMQSLYYNQYAYVPPYGYSDQSYHSHLLSTNTAYRQQYEEQQKRQSLEQQQQQQRGLDKKTEMGLKEREASLKEEWKQKPSIPPTLTKAPSLTDLVKSGPGKAKEPGTDPAKSVIIPKLDDSSKLPSQPPEGLKGKLGEASHLGKEASEAKTGTECGRQAEVDPILWYRQETESRMWTYVYPAKYSDIKSEDDRWKEERDRKLKEDRSRSKDSVPKEDGKESTSSDCKLPPSEESRLGSKEPRPSVHVPVSSPLTQHQSYIPYMHGYSYSQSYDPNHPSYRGMPAVMMQNYPGSYLPSSYSFSPYGSKVSGGEDADKARASPSVSCKASSESKALDILQQHASHYKSKSPTISDKNSQERDRGGCGVVGGGGSCGSVAGAGGTDRSADRPRTSPSQRLMSTHHHHHHLGYSLLPAQYNLPYAAGLSSTAIVASQQGSTPSLYPPPRR
Question: With B2 as the molecule, how does the binding read?
Answer: Its binding is “binds”.

B3: NOL9 (Nucleolar protein 9) (protein, UniProt Q3TZX8 1-714)
chain: MAESEVLHRRAPSRSSWLRVRKARPHLLLSRRGRRRFGVLTRVELRRLRRRLLRAHALGGDWKQVAPAGAHVAVKCKLRARSRPAPRSPPTPSVPPAPCTASATCSLLNPRNHSTPQSRAGRPVRKVSPNVTQPVRDLGSGRVLMMLPPGEGFTFSGICRVTCVYGQLEVYGHIINQGQPPQDVFSVYTHSYLTINGVPYAEPEKSEKAIRREIRALLKPYTKLDDRNWVVRYFPPLGSIMILERMQSRFVDFLKTYKCSSYVLLQENAPVRVNSEFTTLKKIGIRRQKRKKAICLSESGLCALEELVSVSCDGCPVILLCGACDIGKSTFNRILINQLLNSIPGVDYLECDLGQTEFTPPGCVALLTITEPLLGPPYTHQRKPQRMVYYGKMNCYNDYENYIDIVKYVFRDYKREFPLIINTMGWVSDNGLRLLVDLIRVLSPNYVVQLYSDRCKFTPTLTSEYVELTDGLYTKSKIKRYRGFEIPEFGDNLEFTYEEKESSPLPVFTGHVLLSVHSEFLSSKNEKNRAKYNRIFRDLAVLGYLSQLMLPVPESLSPLHSLTPYQVPFSAVAIRVLHADVAPTHILYAVNASWVGLCRIVDDMKGYTRGPILLAQNPICDCLGFGICRGIDMDKRTYHILTPLPPEELKTVNCLLVGSISIPHCIFQNQPGPEGSVPYVTTDYNLNIPGATEKIGEREYGKAFPRHKLRQRRK
Question: For B3, which binding is on record?
Answer: Its binding is “binds”.

B4: LAS1L1 (LAS1 like ribosome biogenesis factor 1) (protein, UniProt A2BE28 1-776)
chain: MDRVWRAWDGQSFKENQPESPSARGIVVSWLSRAEWEQVTVYLFCDDHKLQQYALNRITVWRSRLGNELPLAVASTADLVRCKLIDAAGTLGTDELRLLYGMALVRFVNLISERKTKCSNLPLKYLAQEVNIPDWIVELRHNLTHKKMPHINECRRGCYFVLNWLQKTYWSRQLEGSLKETWELDEDQLDAEDPEEEEREIIADDVLEEIPEPQDDDKDEELAVEDDANTKGNEEVASHPEPSSRHKELYEKARELLVSYEEEQFKVLEKHRHLLQAIKVWNNLSPRVQCILEELKSISWENRDAVLDAFLDDGFLIPTFEQLAALQIEYEDGQTEVQKGEVTEPNSHKNIDLNEVLVPKPFSQFWQPLLRGLHSQTFTQALLERMFSELSTVGSTGIRPTYILRWTVELIVANTKTGRNARRFSASQWEARKSWRLFNCSATLDWPQVIESCLGSPCWASPQLLQVVFKAMGQVLPDEEQEKLLRVCSIYTQNGENGLAKAIEGSSSSSTGKAPYTLDTLHEDLQPPGTNCESEESIQQKEQGNLKDVKQEEKKENEEEEKEEEEMEEEEEEEEEEKEEEEEEQEQEEHQEEEQEEEEEEENQKVFQDQMEADVEESDDVEEEEEVDDEEEDEDDDYDDDEEEDRMEVGAFSLAQGSSVFENTRTTSRKREALQGSAWQVSSEDVRWGTFPLGRLPGQTEDPAELMLDNYDTMYLLDQPVIEHRLEPQKSKSSTLSLCCGGSNTNSSSSSSSGNMEGLLWNQGQMHGLKAGLQLF
Question: B4 was tested. Which binding did it give?
Answer: Its binding is “binds”.

Results are given in words; binding and its absence hold for the method and conditions named. Binding seen in cells or lysates may run through a third protein. Here binding means that the protein was enriched with, or labelled near, the bait; the list need not be complete. Sequences can lack the tags named with a protein.
